From PubChem BioAssay AID493014 (National Center for Advancing Translational Sciences (NCATS), 2011)
Screen size: about 340,000 compounds; about 170 (0.05%) were called active. This list was built around the results that the source calls inconclusive (neither active nor inactive); the mix of calls is not that of the screen. The call rests on the fitted dose curve; in most records, active means well fitted inhibition curve with a large enough effect in the signal ratio, with a control signal flat (not every such curve was filed as active); inconclusive means small, poorly fitted or top-dose-only effect, or effect the other way, or a change in a side signal; inactive means flat fitted curve, though single readings scatter; the % refers to the signal ratio. A potency beside an inconclusive call is a rough fit, not a confirmed value.

Test: qHTS Assay to Find Inhibitors of Chronic Active B-Cell Receptor Signaling;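 on activity change, negative = inhibition: plate controls were basal doxycycline-induced cells for no effect and cells given 10 µM MG132 for full effect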
Details: ABC-DLBCL IkBa-CBG/CBR reporter, luminescence ratio (green luciferase fused to IkBa over red control in TMD8 lymphoma cells), 4 h; activity change, negative = inhibition: at 46.1 µM (top of the series)
Procedure, shortened: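 Compounds up to 46 uM were incubated four hours with TMD8 cells whose green CBG68 luciferase is fused to IkappaBalpha; red CBR luminescence normalised the signal, and concentration-effect curves were fitted to fusion, red and ratio data.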
Potency means the concentration at half of the fitted maximal effect.

Row | SMILES | activity change, negative = inhibition | Potency
1 | CCOC(=O)N1CCN(S(=O)(=O)c2cc([N+](=O)[O-])c(C)cc2C)CC1 | inconclusive: -2.31% | 
2 | COc1cc(OC)cc(-c2nnc(NC(=O)CCS(=O)(=O)c3ccc(C)cc3)o2)c1 | inactive: -5.25% | 
3 | CCCn1c(SCC(=O)c2cc(C)c(C)cc2C)n[nH]c1=O |  | inconclusive: 4.11 µM [falling, partial curve, poor fit]
4 | Nc1c(NCc2ccccc2)c2ccccc2oc1=O |  | inconclusive: 6.51 µM [falling, partial curve]
5 | O=C(CCN1C(=O)C2CCCCC2C1=O)Nc1nc(-c2ccc(F)c(F)c2)cs1 (centres undefined) | inconclusive: 15.4% | 
6 | CCOC(=O)C(=CNNc1cccc(Cl)c1)C(=O)OCC |  | inconclusive: 35.5 µM [falling, single point]
7 | COc1ccc(CCNC(=O)Cn2nc(C)c3c(C)n(-c4ccc(C)cc4)nc3c2=O)c(OC)c1 | inactive: -15.1% | 
8 | CC(=O)c1cc2c(cc1NC(=O)CCc1ccccc1)OCO2 |  | inconclusive: 20.6 µM [falling, single point]
9 | Cc1ccc([N+](=O)[O-])c(OCCN2CCCCCC2)c1 | inactive: 8.02% | 
10 | N#Cc1nc(COc2ccc(F)cc2)oc1NCCN1CCOCC1 | inconclusive: -26.1% | 
11 | CCO[C@H]1OC(C(=O)NCc2nc3ccccc3[nH]2)=C[C@@H](c2csc3ccccc23)[C@@H]1CCCO |  | inconclusive: 12.6 µM [falling, partial curve, poor fit]
12 | Cc1cc(OCC(=O)NCC(C)C)cc(C)c1Br | inconclusive: 14.6% | 
13 | COc1cc2c(cc1OC)C(c1ccccc1)N(C(=O)C(C)(C)C)CC2 (centres undefined) |  | inconclusive: 17.8 µM [falling, single point]
14 | O=C(O)C1CCCCC1C(=O)Nc1ccc2c(c1)CCC2 (centres undefined) | inconclusive: 22.4% | 
15 | COc1ccc(OC)c(NC(=O)CSC2=Nc3ccccc3C3=NC(CCC(=O)NCCc4ccccc4)C(=O)N23)c1 (centres undefined) | inconclusive: -15.5% | 
16 | Cc1ccc(Cl)cc1Nc1nc(-c2sc(NC(=O)C(C)(C)C)nc2C)cs1 | inconclusive: -12.2% | 
17 | Cc1ccc(C2=NNC(C(O)C(O)C(O)CO)S2)cc1 (centres undefined) |  | inconclusive: 1.3 µM [rising, full curve, poor fit]
18 | Cc1ccccc1C(=O)NCC(=O)OCCOc1ccc(C(C)C)c(C)c1 | inconclusive: -0.64% | 
19 | CC(=O)c1cc(-c2ccccc2)n(CCC(=O)NC2CCCCCC2)c1C | inconclusive: -0.4% | 
20 | COc1ccc2ccccc2c1/C=N/NC(=O)c1ccccc1F |  | inconclusive: 25.1 µM [falling, single point]
21 | CCCCOc1ccccc1NC(=O)CSc1nnnn1C(C)(C)C | inconclusive: -3.07% | 
22 | COc1ccc(-c2nnc(NC(=O)CSc3ccccc3)s2)cc1OC |  | inconclusive: 14.6 µM [rising, partial curve]
23 | CCN(CC(=O)Nc1cccc(S(=O)(=O)N2CCCCC2)c1)Cc1ccccc1 | inconclusive: 12.3% | 
24 | CC1(C)Cc2ccccc2-c2nc(-c3ccccc3)oc(=O)c21 |  | inconclusive: 20.6 µM [rising, partial curve, poor fit]
25 | CC(=O)Nc1sc(N/N=C\c2ccccc2Cl)nc1-c1cccs1 |  | inconclusive: 29.1 µM [falling, partial curve, poor fit]
26 | Cn1nnnc1SCC(=O)Nc1nc2c(s1)CCCC2 | inconclusive: 0.598% | 
27 | Cc1noc(/C=C/c2ccco2)c1S(=O)(=O)N1CCC(C(=O)N2CCc3ccccc3C2)CC1 | inconclusive: -1.58% | 

Row | SMILES | activity change, negative = inhibition | Potency
28 | Cc1ccc(-c2cc(C(F)F)n3ncc(C(=O)N4CCc5ccccc5C4)c3n2)cc1 | inactive: -17.4% | 
29 | COc1ccccc1NC(=O)NS(=O)(=O)c1ccc(C)cc1 |  | inconclusive: 0.0103 µM [falling, full curve, poor fit]
30 | CN(C)C(C)(C)/C=C/C(O)(c1ccccc1)c1ccccc1 |  | inconclusive: 35.5 µM [falling, single point]
31 | CCCS(=O)(=O)c1snnc1C |  | inconclusive: 1.03 µM [falling, partial curve, poor fit]
32 | CCCCC(=O)Nc1ccc(Cl)cn1 | inconclusive: 0.0705% | 
33 | Cc1ccc(C(=O)Nc2ccnc(-c3ccncc3)n2)cc1 | inconclusive: 8.42% | 
34 | O=C(NC1CCCC1)C1CCCN1S(=O)(=O)c1cccc2cccnc12 (centres undefined) | inconclusive: -9.6% | 
35 | Cc1cnc(NC(=O)CSc2nnc(C)s2)s1 |  | inconclusive: 3.66 µM [rising, partial curve]
36 | COC(=O)CCCNC(=O)c1ccccn1 | inconclusive: -0.229% | 
37 | COC(=O)C1=C(C)NC=C([N+](=O)[O-])C1c1ccc(OC)cc1 (centres undefined) | inconclusive: -0.208% | 
38 | S=C(NCc1ccccn1)Nc1ccccc1 | inconclusive: 0.946% | 
39 | CC(=O)Oc1ccccc1C(=O)OCCN=C1NS(=O)(=O)c2ccccc21 | inactive: -4.26% | 
40 | CC(C)N(Cc1nnc(-c2ccc(Cl)cc2)o1)C(=O)C1=COCCO1 | inconclusive: 19.6% | 
41 | O=C(Nc1cccc(-c2ccc(F)cc2)c1)C1CCCN(Cc2cccnc2)C1 (centres undefined) | inconclusive: -17.7% | 
42 | CCOc1cc(/C=N/NC(=O)c2ccc3c(c2)OCCO3)cc(Br)c1O | inconclusive: -19.3% | 
43 | Cc1ccc(NC(=O)c2ccc(-n3cccn3)c([N+](=O)[O-])c2)cc1C | inconclusive: 2.77% | 
44 | CCOC(=O)c1ccc(NC(=O)CSc2nnc(C3CC3)n2C)cc1 | inactive: 2.94% | 
45 | COc1ccc(-n2c(SCC(=O)Nc3ncc(Cl)cc3Cl)nc3ccccc32)cc1 | inconclusive: -0.0766% | 
46 | Cc1cc(Cl)ccc1NNC(N)=S |  | inconclusive: 35.5 µM [falling, partial curve, poor fit]
47 | CN1CCN(C(=O)c2cc(C(C)(C)C)cc(C(C)(C)C)c2)CC1 | inconclusive: 9.71% | 
48 | CCOC(=O)CN1C(=O)/C(=C/c2cccc(Br)c2)Oc2ccccc21 | inconclusive: 8.08% | 
49 | COC(=O)c1cn(NC(=O)CC2CCCCC2)c(=O)c2ccccc12 |  | inconclusive: 6.51 µM [rising, partial curve, poor fit]
50 | CC(=O)/C(=N/Nc1ccccc1)Sc1nnc(CCc2ccccc2)n1-c1ccccc1 | inactive: -0.512% | 
51 | CC(=O)Oc1ccccc1C1C[C@]2(C)CC(=O)NC2N1C(C)=O (some centres undefined) | inactive: 3.46% | 
52 | COC(=O)C(NC(=O)c1ccc(C)cc1)(Nc1cccc(C)n1)C(F)(F)F (centres undefined) | inconclusive: -7.6% | 
53 | Cc1ccc2c(c1)c(C1=c3ccccc3=NC1=O)c(O)n2C |  | inconclusive: 35.5 µM [falling, single point]
54 | COc1ccc(Cc2nc3ccc(C(=O)NCCn4ccnc4C)cc3o2)cc1OC | inactive: 0.788% | 

Row | SMILES | activity change, negative = inhibition | Potency
55 | Cc1ccc(C(C)C)c2oc(=O)cc(-c3ccc(-c4ccc(C(F)(F)F)cc4)cc3)c12 | inactive: 1.02% | 
56 | O=[N+]([O-])c1c(Nc2ccccc2O)cc(Cl)c2nonc12 | inconclusive: 23.6% | 
57 | CC(=O)n1cc(/C=N/NC(=O)c2sc(C)nc2C)c2ccccc21 |  | inconclusive: 10 µM [falling, partial curve, poor fit]
58 | COc1cc(CCCN2CCNC[C@@H]2c2ccccc2)cc(OC)c1OC | inactive: 0.759% | 
59 | CCOC(=O)COn1c(=O)c(=O)n(OC)c2ccccc21 | inconclusive: -3.29% | 
60 | COC(=O)/C=c1/s/c(=C(/C#N)C(=O)N2CCCCC2)n(-c2ccccc2)c1=O | inconclusive: -20.7% | 
61 | O=C(NCC(O)c1ccccc1)c1cccc(S(=O)(=O)N2CCOCC2)c1 (centres undefined) | inconclusive: -21.6% | 
62 | Cc1ccc(S(=O)(=O)N2CCCCC2)cc1NC(=O)COC(=O)c1ccccc1F | inactive: 0.534% | 
63 | COC(=O)c1ccc(NC(=O)CNS(=O)(=O)c2cccs2)cc1 |  | inconclusive: 29.1 µM [falling, single point]
64 | Cc1noc(NS(=O)(=O)c2ccc(NC(=O)CCCOc3ccc(Cl)cc3Cl)cc2)c1C | inactive: -3.32% | 
65 | O=C(Nc1ccccc1)N1CCCC2CCCCC21 (centres undefined) |  | inconclusive: 18.4 µM [falling, single point]
66 | CCC1Sc2ccc(S(=O)(=O)CCC(=O)Nc3cccc(Br)c3)cc2NC1=O (centres undefined) | inconclusive: 9.05% | 
67 | CCCCCC(=O)N/N=C(\C)c1ccc(Cl)cc1 | inconclusive: 7.04% | 
68 | Cc1ccc(Nc2nc(N)nc(CSc3nnnn3-c3ccccc3)n2)cc1 | inconclusive: -12.2% | 
69 | CC(Cc1ccccc1)C(=O)NCCO (centres undefined) | inconclusive: 4.4% | 
70 | CCOc1ccc(CNCc2ccccc2Cl)cc1 | inactive: 3.48% | 
71 | CCCOc1ccc(CN(CCC#N)C(=S)NC(=O)c2ccccc2)cc1 | inconclusive: 4.65% | 
72 | Cc1ccc(Nc2nc(-c3c(C)nc4ccccn34)cs2)cc1 |  | inconclusive: 15.8 µM [falling, partial curve, poor fit]
73 | O=C(N/N=C\c1ccc(CNS(=O)(=O)c2ccccc2)o1)C(=O)Nc1ccc(F)cc1 |  | inconclusive: 2.91 µM [falling, partial curve]
74 | CCCCc1cc(=O)oc2cc(C)cc(OC(C)C(=O)NCc3cccnc3)c12 (centres undefined) | inconclusive: 2.77% | 
75 | O=C(N/N=C/c1ccc(Br)s1)c1ccco1 |  | inconclusive: 22.4 µM [falling, partial curve]
76 | O=C(CSC1=NS(=O)(=O)c2cc(F)ccc2N1)Nc1ccccc1 |  | inconclusive: 16.4 µM [falling, partial curve, poor fit]
77 | CCCN(CC1CC1)C(=S)Nc1ccc(Oc2ccccc2)cc1 | inactive: 0.411% | 
78 | C=CCOc1ccc2c(c1)C(=NO)c1cc(OCC=C)ccc1-2 |  | inconclusive: 3.26 µM [rising, full curve]
79 | COc1ccc(CN(C)C(=O)CC(c2ccccc2)c2ccccc2)cc1 | inconclusive: -2.08% | 
